Source: the supplement of paper PMC12823440, “Inhibitors supercharge kinase turnover through native proteolytic circuits” (Nature, 2025)
Counter-ions that a name gives are not always drawn. Some of the results follow. Hit calls seldom repeat between salt and free forms of one compound.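 Kinases, fused to nanoluciferase, were expressed in K562 cells; luminescence was measured every 4 h from 2 to 18 h as percent of control (DMSO = 100%, positive control = 0%). A time point is decreased if signal falls significantly (2 sigma). Hits were called by the authors by a rule that is not shown; the count of time points alone does not decide it.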

Sequences of proteins named here, by UniProt entry; tags and fusion partners are left off. A change or cut given only in a name is not applied to a line headed by its entry.
UniProt P48729: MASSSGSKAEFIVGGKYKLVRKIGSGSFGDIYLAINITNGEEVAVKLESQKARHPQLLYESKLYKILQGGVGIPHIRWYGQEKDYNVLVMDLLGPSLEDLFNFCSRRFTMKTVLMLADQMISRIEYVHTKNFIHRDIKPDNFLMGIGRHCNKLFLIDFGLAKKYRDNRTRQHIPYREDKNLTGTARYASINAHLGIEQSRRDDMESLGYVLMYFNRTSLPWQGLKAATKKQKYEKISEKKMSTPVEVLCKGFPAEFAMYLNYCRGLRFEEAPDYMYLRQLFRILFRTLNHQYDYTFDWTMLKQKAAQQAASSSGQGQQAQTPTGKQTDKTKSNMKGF
UniProt P48730: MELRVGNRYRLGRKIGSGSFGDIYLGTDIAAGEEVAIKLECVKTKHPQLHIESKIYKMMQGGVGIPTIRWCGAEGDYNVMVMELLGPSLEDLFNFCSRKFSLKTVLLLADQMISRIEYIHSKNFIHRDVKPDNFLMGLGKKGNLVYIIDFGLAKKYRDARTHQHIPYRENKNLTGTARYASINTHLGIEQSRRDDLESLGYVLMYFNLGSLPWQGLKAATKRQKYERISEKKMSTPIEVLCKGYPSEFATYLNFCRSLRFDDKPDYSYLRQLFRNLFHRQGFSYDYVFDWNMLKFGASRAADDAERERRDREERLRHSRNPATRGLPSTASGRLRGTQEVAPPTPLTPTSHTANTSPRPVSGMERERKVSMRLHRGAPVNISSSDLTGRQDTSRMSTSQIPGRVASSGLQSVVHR
UniProt Q08345: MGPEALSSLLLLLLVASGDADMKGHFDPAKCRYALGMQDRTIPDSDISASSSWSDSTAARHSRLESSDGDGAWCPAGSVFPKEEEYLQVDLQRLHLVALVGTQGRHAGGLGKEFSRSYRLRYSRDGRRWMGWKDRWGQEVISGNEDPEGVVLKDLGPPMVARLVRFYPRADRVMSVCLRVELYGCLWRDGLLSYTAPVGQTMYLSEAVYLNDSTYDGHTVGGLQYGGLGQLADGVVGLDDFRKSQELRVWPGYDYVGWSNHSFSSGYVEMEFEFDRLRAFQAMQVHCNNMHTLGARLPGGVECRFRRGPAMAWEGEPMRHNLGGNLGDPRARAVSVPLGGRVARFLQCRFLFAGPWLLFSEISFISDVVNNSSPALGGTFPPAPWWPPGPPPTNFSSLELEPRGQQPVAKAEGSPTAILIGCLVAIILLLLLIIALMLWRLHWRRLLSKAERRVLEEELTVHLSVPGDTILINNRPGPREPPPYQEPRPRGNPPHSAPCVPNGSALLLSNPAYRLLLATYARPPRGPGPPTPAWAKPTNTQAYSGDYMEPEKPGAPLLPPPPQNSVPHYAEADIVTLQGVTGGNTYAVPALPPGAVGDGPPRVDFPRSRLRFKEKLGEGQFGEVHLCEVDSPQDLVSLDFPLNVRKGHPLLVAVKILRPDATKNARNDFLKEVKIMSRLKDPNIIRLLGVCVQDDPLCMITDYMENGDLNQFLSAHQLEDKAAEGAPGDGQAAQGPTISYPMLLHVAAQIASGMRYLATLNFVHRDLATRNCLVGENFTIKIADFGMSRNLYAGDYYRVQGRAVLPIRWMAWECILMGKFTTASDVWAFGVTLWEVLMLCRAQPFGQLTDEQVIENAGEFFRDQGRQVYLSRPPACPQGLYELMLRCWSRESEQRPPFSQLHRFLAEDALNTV
UniProt Q9Y463, whole entry, looked up: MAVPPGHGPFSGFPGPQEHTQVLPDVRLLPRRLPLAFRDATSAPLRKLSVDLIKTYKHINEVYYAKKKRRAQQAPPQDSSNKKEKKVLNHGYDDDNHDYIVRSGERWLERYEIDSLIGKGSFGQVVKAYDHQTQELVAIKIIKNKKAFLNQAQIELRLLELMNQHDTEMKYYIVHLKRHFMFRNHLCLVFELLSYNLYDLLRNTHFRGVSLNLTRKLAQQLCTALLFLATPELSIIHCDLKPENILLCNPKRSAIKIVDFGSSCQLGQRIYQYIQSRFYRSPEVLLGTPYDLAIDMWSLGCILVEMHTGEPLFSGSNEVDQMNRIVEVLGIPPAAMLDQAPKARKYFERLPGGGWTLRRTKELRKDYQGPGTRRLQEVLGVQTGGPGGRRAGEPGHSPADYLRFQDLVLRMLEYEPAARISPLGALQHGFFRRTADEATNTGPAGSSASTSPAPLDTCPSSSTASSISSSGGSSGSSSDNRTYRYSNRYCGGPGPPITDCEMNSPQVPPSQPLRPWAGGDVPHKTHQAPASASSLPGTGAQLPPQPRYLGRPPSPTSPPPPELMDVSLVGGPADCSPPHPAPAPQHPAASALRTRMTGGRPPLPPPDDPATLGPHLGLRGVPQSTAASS
UniProt Q92630: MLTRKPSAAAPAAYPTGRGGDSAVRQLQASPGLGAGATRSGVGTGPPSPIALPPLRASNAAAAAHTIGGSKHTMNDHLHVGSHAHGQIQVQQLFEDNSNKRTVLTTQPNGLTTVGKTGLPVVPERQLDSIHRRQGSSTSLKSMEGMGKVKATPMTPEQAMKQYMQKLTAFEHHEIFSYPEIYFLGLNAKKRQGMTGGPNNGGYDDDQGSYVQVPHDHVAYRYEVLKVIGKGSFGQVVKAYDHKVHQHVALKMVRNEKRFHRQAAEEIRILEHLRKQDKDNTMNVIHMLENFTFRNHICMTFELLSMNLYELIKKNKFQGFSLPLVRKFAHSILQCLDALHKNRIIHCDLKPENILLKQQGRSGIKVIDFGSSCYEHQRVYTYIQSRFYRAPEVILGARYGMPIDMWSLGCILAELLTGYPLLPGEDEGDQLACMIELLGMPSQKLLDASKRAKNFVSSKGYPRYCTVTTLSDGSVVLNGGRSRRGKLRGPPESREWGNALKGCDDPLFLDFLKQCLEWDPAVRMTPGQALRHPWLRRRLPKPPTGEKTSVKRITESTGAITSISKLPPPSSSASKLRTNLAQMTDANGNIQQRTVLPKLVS

Legend:
Assay in all cases: number of time points (of 5) at which kinase-Nluc abundance scored as decreased, DMSO-normalised (count); higher = more persistent destabilization
Details in all cases: K562; 2-18 h
CSNK1A1 = CSNK1A1 (UniProt P48729)
CSNK1D = CSNK1D (UniProt P48730)
DDR1 = DDR1 (UniProt Q08345)
DYRK1B = DYRK1B (UniProt Q9Y463)
DYRK2 = DYRK2 (UniProt Q92630)
EGFR = EGFR (UniProt P00533)
EGFR_G719S = EGFR_G719S (UniProt P00533)
EGFR_G719S_T790M = EGFR_G719S_T790M (UniProt P00533)
EGFR_L718V = EGFR_L718V (UniProt P00533)
EGFR_L858R = EGFR_L858R (UniProt P00533)

Measured: number of time points

Cc1cc(=O)oc2c(C=O)c(O)ccc12 (10 µM)
0: CSNK1A1 | CSNK1D | DDR1 | DYRK1B | DYRK2 | EGFR | EGFR_G719S | EGFR_G719S_T790M | EGFR_L718V | EGFR_L858R

CC1=C(C(=O)O)N2C(=O)[C@@H](NC(=O)[C@H](N)C3=CCC=CC3)[C@H]2SC1 [Cephradine] (10 µM)
0: CSNK1A1 | CSNK1D | DDR1 | DYRK1B | DYRK2 | EGFR | EGFR_G719S | EGFR_G719S_T790M | EGFR_L718V | EGFR_L858R

COc1cc(Nc2ncc(F)c(Nc3ccc4c(n3)N(COP(=O)(O)O)C(=O)C(C)(C)O4)n2)cc(OC)c1OC [Fostamatinib Disodium] (10 µM)
1: DDR1
0: CSNK1A1 | CSNK1D | DYRK1B | DYRK2 | EGFR | EGFR_G719S | EGFR_G719S_T790M | EGFR_L718V | EGFR_L858R

CN(CC(=O)N(Cc1ccc(C2CCCCC2)cc1)c1ccc(C(=O)NO)cc1)S(=O)(=O)c1c(F)c(F)c(F)c(F)c1F (2.5 µM)
0: CSNK1A1 | CSNK1D | DDR1 | DYRK1B | DYRK2 | EGFR | EGFR_G719S_T790M | EGFR_L718V | EGFR_L858R
2: EGFR_G719S

O=C(Nc1cn[nH]c1-c1ccccn1)c1nn(C2CCNCC2)cc1Cl (10 µM)
0: CSNK1A1 | CSNK1D | DDR1 | DYRK1B | EGFR | EGFR_G719S | EGFR_L718V | EGFR_L858R
3: DYRK2
1: EGFR_G719S_T790M

Cn1cc(-c2ccc3c(c2)CCN3C(=O)Cc2cccc(C(F)(F)F)c2)c2c(N)ncnc21 (2.5 µM)
0: CSNK1A1 | CSNK1D | DDR1 | DYRK1B | DYRK2 | EGFR | EGFR_G719S | EGFR_G719S_T790M | EGFR_L718V | EGFR_L858R

CCNc1nc(Nc2cc(F)c(C(=O)N3CCOCC3)cc2OC)ncc1C(F)(F)F [GNE-7915 (tosylate)] (10 µM)
0: CSNK1A1 | CSNK1D | DDR1 | DYRK1B | DYRK2 | EGFR | EGFR_G719S | EGFR_G719S_T790M | EGFR_L718V | EGFR_L858R

COc1cc(/C=C/C(=O)NCC(O)c2ccc(O)cc2)ccc1O (stereo not given) [N-Feruloyloctopamine] (2.5 µM)
0: CSNK1A1 | CSNK1D | DDR1 | DYRK1B | DYRK2 | EGFR | EGFR_G719S | EGFR_G719S_T790M | EGFR_L718V | EGFR_L858R

O=Nc1c(-c2c(O)[nH]c3ccc(I)cc23)[nH]c2ccccc12 [5-Iodo-indirubin-3'-monoxime] (10 µM)
0: CSNK1A1 | CSNK1D | DDR1 | DYRK1B | DYRK2 | EGFR | EGFR_G719S_T790M | EGFR_L718V | EGFR_L858R
1: EGFR_G719S

CCc1cc2c(cc1N1CCC(N3CCOCC3)CC1)C(C)(C)c1[nH]c3cc(C#N)ccc3c1C2=O [Alectinib (Hydrochloride)] (2 µM)
0: CSNK1A1 | CSNK1D | DDR1 | DYRK1B | DYRK2 | EGFR | EGFR_G719S | EGFR_G719S_T790M | EGFR_L718V | EGFR_L858R

COc1cc(OC2CCN(C)CC2)ccc1Nc1ncc2c(n1)n(C1CCCC1)c(=O)n2C (10 µM)
0: CSNK1A1 | CSNK1D | DDR1 | DYRK1B | DYRK2 | EGFR | EGFR_G719S | EGFR_G719S_T790M | EGFR_L718V | EGFR_L858R

O=C(NCCN1CCOCC1)c1cc2c(Oc3ccc(NC(=O)C4(C(=O)Nc5ccc(F)cc5)CC4)cc3)ccnc2[nH]1 [Tyrosine kinase inhibitor] (10 µM)
0: CSNK1A1 | CSNK1D | DDR1 | DYRK1B | DYRK2 | EGFR | EGFR_G719S | EGFR_G719S_T790M | EGFR_L718V | EGFR_L858R

CC(C)(C)c1nc(-c2cccc(NS(=O)(=O)c3c(F)cccc3F)c2F)c(-c2ccnc(N)n2)s1 [Dabrafenib] (2.5 µM)
0: CSNK1A1 | CSNK1D | DDR1 | DYRK1B | DYRK2 | EGFR | EGFR_G719S | EGFR_G719S_T790M | EGFR_L718V | EGFR_L858R

c1cncc(CN2CCC(n3ncc4c(N5CCOCC5)nc(-c5ccc6[nH]ccc6c5)nc43)CC2)c1 (10 µM)
0: CSNK1A1 | EGFR | EGFR_L718V
2: EGFR_G719S_T790M | EGFR_L858R
3: CSNK1D
4: DDR1 | DYRK2
1: DYRK1B | EGFR_G719S

O=C1N[C@@H](Cc2c[nH]c3ccccc23)C(=O)N2CCC[C@@H]12 [Brevianamide F] (10 µM)
0: CSNK1A1 | CSNK1D | DDR1 | DYRK1B | DYRK2 | EGFR | EGFR_G719S | EGFR_G719S_T790M | EGFR_L718V | EGFR_L858R

3 structures out of the list, arranged by number of heavy atoms, low to high:
COc1cc(OC2CCN(C)CC2)ccc1Nc1ncc2c(n1)n(C1CCCC1)c(=O)n2C (10 µM)
0: CSNK1A1 | CSNK1D | DDR1 | DYRK1B | DYRK2 | EGFR | EGFR_G719S | EGFR_G719S_T790M | EGFR_L718V | EGFR_L858R

CC(C)(C)c1nc(-c2cccc(NS(=O)(=O)c3c(F)cccc3F)c2F)c(-c2ccnc(N)n2)s1 [Dabrafenib] (2.5 µM)
0: CSNK1A1 | CSNK1D | DDR1 | DYRK1B | DYRK2 | EGFR | EGFR_G719S | EGFR_G719S_T790M | EGFR_L718V | EGFR_L858R

O=C(NCCN1CCOCC1)c1cc2c(Oc3ccc(NC(=O)C4(C(=O)Nc5ccc(F)cc5)CC4)cc3)ccnc2[nH]1 [Tyrosine kinase inhibitor] (10 µM)
0: CSNK1A1 | CSNK1D | DDR1 | DYRK1B | DYRK2 | EGFR | EGFR_G719S | EGFR_G719S_T790M | EGFR_L718V | EGFR_L858R

Continued:

FC(F)(c1ccc2ncccc2c1)c1nnc2ccc(-c3ccncc3)nn12 (10 µM)
0: CSNK1A1 | CSNK1D | DDR1 | DYRK1B | DYRK2 | EGFR | EGFR_G719S | EGFR_G719S_T790M | EGFR_L718V | EGFR_L858R

Oc1cc(O)c2cc(O)c(-c3cc(O)c(O)c(O)c3)[o+]c2c1 [Delphinidin (chloride)] (10 µM)
0: DDR1 | DYRK1B | DYRK2 | EGFR_G719S_T790M | EGFR_L718V | EGFR_L858R
2: EGFR | EGFR_G719S
3: CSNK1A1 | CSNK1D

COCCNc1nc2ccc(C#CC3(O)CCCCC3)cc2n1-c1ccnc(N)n1 (10 µM)
0: CSNK1A1 | CSNK1D | DDR1 | DYRK1B | DYRK2 | EGFR | EGFR_G719S | EGFR_G719S_T790M | EGFR_L718V | EGFR_L858R

O=C1Nc2ccc(C(=O)c3ccco3)cc2C1=Cc1cc(Cl)c(O)c(Cl)c1 (2.5 µM)
0: CSNK1A1 | CSNK1D | DDR1 | DYRK1B | DYRK2 | EGFR | EGFR_G719S | EGFR_G719S_T790M | EGFR_L718V | EGFR_L858R
